Test results: patent US9750252B2, “Arylalkyloxy pyrimidine derivative, pesticide for agricultural and horticultural use containing arylalkyloxy pyrimidine derivative as active ingredient, and use of same” (NIHON NOHYAKU CO., LTD., priority 2012, dated 2017)
Some results were stated once for a whole list of compounds, not compound by compound. Some compounds share one range, which may span the group rather than tell each member.

System: Green Peach Aphid (Myzus persicae)
Test: Control efficacy against green peach aphid, spray on potted Chinese cabbage
Assay type: in vivo
Conditions: 500 ppm liquid chemical sprayed on stalks and leaves of Chinese cabbage; counted six days after the spraying

| Compound | insecticidal effect (control efficacy) against green peach aphid |
| --- | --- |
| O=[N+]([O-])c1ccc(COc2ncncc2C2SCCCS2)cc1 [9-6] | D (control efficacy 79%-50%) |
| CC(C)(C)c1ccc(COc2ncncc2C2S(=O)(=O)CCCS2(=O)=O)cc1 [9-12] | D (control efficacy 79%-50%) |
| CC1(C)OCC(c2cncnc2OCc2ccc(C(C)(C)C)cc2)O1 (stereo not drawn) [9-18] | D (control efficacy 79%-50%) |
| Fc1cc(C(F)(F)F)ccc1COc1ncncc1C1OCCO1 [9-20] | D (control efficacy 79%-50%) |
| Fc1cc(C(F)(F)F)ccc1COc1ncncc1C1OCCCCO1 [9-21] | D (control efficacy 79%-50%) |
| [O-][S+]1CCCOC1c1cncnc1OCc1ccc(OC(F)(F)F)cc1 (stereo not drawn) [9-26] | D (control efficacy 79%-50%) |
| CCC1COC(c2cncnc2OCc2ccc(C(F)(F)F)cc2)O1 (stereo not drawn) [9-31] | D (control efficacy 79%-50%) |
| CC(C)c1ccc(COc2ncncc2C2OCCCO2)cc1 [9-42] | D (control efficacy 79%-50%) |
| [O-][n+]1cnc(OCc2ccc(OC(F)(F)F)cc2)c(C2OCCCO2)c1 [10-2] | D (control efficacy 79%-50%) |
| CC(C)CCc1c[n+]([O-])cnc1OCc1ccc(OC(F)(F)F)cc1 [10-3] | D (control efficacy 79%-50%) |
| CCc1c[n+]([O-])cnc1OCc1ccc(C(C)(C)C)cc1 [10-7] | D (control efficacy 79%-50%) |
| C=Cc1c[n+]([O-])cnc1OCc1ccc(C(F)(F)F)cc1 [10-10] | D (control efficacy 79%-50%) |
| CC(C)Cc1c[n+]([O-])cnc1OCc1ccc(C(C)(C)C)cc1 [10-11] | D (control efficacy 79%-50%) |
| OC(c1cncnc1OCc1ccc(C(F)(F)F)cc1)C1CC1 (stereo not drawn) [14-11] | D (control efficacy 79%-50%) |
| FC(F)(F)c1ccc(COc2ncncc2C=CCCCl)cc1 [14-13] | D (control efficacy 79%-50%) |
| COC(c1cncnc1OCc1ccc(C(F)(F)F)cc1)C1CC1 (stereo not drawn) [14-14] | D (control efficacy 79%-50%) |
| O=C(OCCC=Cc1cncnc1OCc1ccc(C(F)(F)F)cc1)C(F)(F)F [14-18] | D (control efficacy 79%-50%) |
| O=C(OC(c1cncnc1OCc1ccc(C(F)(F)F)cc1)C1CC1)C(F)(F)F (stereo not drawn) [14-19] | D (control efficacy 79%-50%) |
| O=C(c1cncnc1OCc1ccc(C(F)(F)F)cc1)C1CC1 [14-20] | D (control efficacy 79%-50%) |
| CC(=O)C=Cc1cncnc1OCc1ccc(C(F)(F)F)cc1 [14-27] | D (control efficacy 79%-50%) |
| O=C(N(Cc1cncnc1OCc1ccc(C(F)(F)F)cc1)c1ccccc1)C(F)(F)F [14-41] | D (control efficacy 79%-50%) |
| C=C(C)c1cncnc1OCc1ccc(C(F)(F)F)cc1 [14-44] | D (control efficacy 79%-50%) |
| COC(=O)C(C)(C)c1cncnc1OCc1ccc(C(F)(F)F)cc1 [14-55] | D (control efficacy 79%-50%) |
| COC(c1cncnc1OCc1ccc(C(F)(F)F)cc1)C(F)(F)F (stereo not drawn) [14-56] | D (control efficacy 79%-50%) |
| CCSCc1cncnc1OCc1ccc(C(F)(F)F)cc1 [14-57] | D (control efficacy 79%-50%) |

| Compound | insecticidal effect (control efficacy) against green peach aphid |
| --- | --- |
| N#CCc1cncnc1OCc1ccc(C(F)(F)F)cc1 [14-65] | D (control efficacy 79%-50%) |
| O=C(Nc1ccccc1Cl)c1cncnc1OCc1ccc(C(F)(F)F)cc1 [14-86] | D (control efficacy 79%-50%) |
| N#CC1(c2cncnc2OCc2ccc(C(F)(F)F)cc2)CC1 [14-106] | D (control efficacy 79%-50%) |
| CC(C)(C#N)c1cncnc1OCc1ccc(C(F)(F)F)cc1 [14-123] | D (control efficacy 79%-50%) |
| COC(OC)c1cncnc1OCc1ccc(Br)cc1 [15-1] | D (control efficacy 79%-50%) |
| COC(OC)c1cncnc1OCc1ccc(Cl)c(Cl)c1 [15-5] | D (control efficacy 79%-50%) |
| COC(OC)c1cncnc1OCc1ccc(Cl)cc1Cl [15-6] | D (control efficacy 79%-50%) |
| COC(OC)c1cncnc1OCc1ccc(F)c(F)c1 [15-8] | D (control efficacy 79%-50%) |
| CSc1ccc(COc2ncncc2C2OCCCO2)cc1 [15-24] | D (control efficacy 79%-50%) |
| Clc1ccc(COc2ncncc2C2OCCCO2)c(Cl)c1 [15-29] | D (control efficacy 79%-50%) |
| Fc1ccc(COc2ncncc2C2OCCCO2)cc1F [15-30] | D (control efficacy 79%-50%) |
| Fc1ccc(COc2ncncc2C2OCCCO2)c(F)c1 [15-31] | D (control efficacy 79%-50%) |
| Ic1ccc(COc2ncncc2C2OCCCO2)cc1 [15-34] | D (control efficacy 79%-50%) |
| FC(F)(F)C(F)(c1ccc(COc2ncncc2C2OCCCO2)cc1)C(F)(F)F [15-40] | D (control efficacy 79%-50%) |
| Fc1ccc(C(F)(F)F)cc1COc1ncncc1C1OCCCO1 [15-46] | D (control efficacy 79%-50%) |
| FC(F)c1ccc(COc2ncncc2C2OCCCO2)cc1 [15-47] | D (control efficacy 79%-50%) |
| FC(F)(F)C(F)(F)c1ccc(COc2ncncc2C2OCCCO2)cc1 [15-52] | D (control efficacy 79%-50%) |
| FC(F)(F)c1ccc(COc2ncncc2C2OCCO2)cc1 [15-63] | D (control efficacy 79%-50%) |
| C=CCOCC1COC(c2cncnc2OCc2ccc(C(F)(F)F)cc2)O1 (stereo not drawn) [15-81] | D (control efficacy 79%-50%) |
| FC(F)(F)c1ccc(COc2ncncc2C2OCC(COc3ccccc3)O2)cc1 (stereo not drawn) [15-83] | D (control efficacy 79%-50%) |
| C=C1COC(c2cncnc2OCc2ccc(C(F)(F)F)cc2)OC1 [15-95] | D (control efficacy 79%-50%) |
| CC1(C)CCOC(c2cncnc2OCc2ccc(C(F)(F)F)cc2)O1 (stereo not drawn) [15-97] | D (control efficacy 79%-50%) |
| FC(F)(F)c1ccc(COc2ncncc2C2OC3CCCC(C3)O2)cc1 (stereo not drawn) [15-106] | D (control efficacy 79%-50%) |
| FC(F)(F)C(F)(c1ccc(COc2ncncc2C2OCCCCO2)cc1)C(F)(F)F [15-113] | D (control efficacy 79%-50%) |

System: Brown Rice Planthopper (Nilaparvata Lugens)
Test: not given
Assay type: in vivo
Conditions: 500 ppm liquid chemical, rice seedlings immersed 30 seconds, third-instar nymphs; eight days after the inoculation

| Compound | insecticidal effect (corrected mortality) against brown rice planthopper |
| --- | --- |
| CC1COC(c2cncnc2OCc2ccc(F)cc2F)O1 (mixture of isomers) [15-19] | D (control efficacy 79%-50%) |
| FC(C(F)(F)F)C(F)(F)Oc1ccc(COc2ncncc2C2OCCCO2)cc1 (racemic) [15-53] | D (control efficacy 79%-50%) |
